Results deposited as PubChem BioAssay AID1259291 (Sanger Institute, 2017).
Test: 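Genes needed for HT29 colorectal cancer cell survival or for sensitivity to drugs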 (primary screen). Cells: HT29 human colorectal cancer cells. Reagents: siRNA pool against human genes. Treatment: anchor drugs added a day after transfection: BYL719 at 1 µM, cetuximab at 5 µg/ml or trametinib at 10 nM, or DMSO vehicle alone. Detection: 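Replicate-averaged viability relative to non-targeting pool, robust z-score based on control wells, plus per-drug synergy score for 1 µM BYL719, 5 µg/ml cetuximab and 10 nM trametinib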. Direction: robust z-score, knock-down alone and viability, knock-down alone: higher = more viable cells; synergy score with BYL719 and synergy score with cetuximab and synergy score with trametinib: higher = stronger synergistic killing with drug. Call rule: 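Essential when the robust z-score for knock-down without any drug is below -3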. Calls: active = essential (knock-down alone); inactive = no change alone.
In all, the deposit lists 794 reagents; below is an unselected part. Over the whole deposit, 15 (1.9%) are marked active. 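Calls rest on knock-down alone; drug synergy scores do not affect them; drugs added a day post-transfection, DMSO vehicle as comparison.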 Viability is capped at 1. Not stated in the record: the amount of reagent, the time to read-out.

no.	target gene	robust z-score, knock-down alone	viability, knock-down alone (fraction of control)	synergy score with BYL719	synergy score with cetuximab	synergy score with trametinib	outcome
1	EEF2K	-1.58	0.868	0.104	-0.0889	-0.176	inactive
2	PRKAR2B	-1.67	0.862	-0.0698	-0.0939	0.0723	inactive
3	PPP2R1A	0.552	1	-0.107	0	0.0309	inactive
4	PNCK	0.552	1	-0.124	0.0278	0.0908	inactive
5	KMT2B	-1.57	0.868	0.144	-0.038	0.109	inactive
6	TSSK1B	0.0831	0.971	-0.0577	-0.0292	0.19	inactive
7	GNAS	0.552	1	-0.016	0	0.145	inactive
8	WEE1	-5.36	0.633	0.0364	-0.0541	-0.0503	active
9	TRIB3	-1.32	0.884	0.0196	-0.0532	-0.0973	inactive
10	TRPM7	0.552	1	0.163	0.00894	-0.0178	inactive
11	ULK1	0.552	1	0.00903	0	-0.0483	inactive
12	APC	0.552	1	-0.105	0	0.198	inactive
13	STK10	0.552	1	0.00309	0	0.0796	inactive
14	ERBB2	-0.118	0.958	-0.0304	-0.019	0.0371	inactive
15	ACSL6	0.552	1	-0.0561	0	-0.0322	inactive
16	MARK3	0.42	0.992	0.0836	-0.00826	0.0593	inactive
17	PIP5K1C	0.552	1	0.0256	0.00511	0.00321	inactive
18	TLK2	-0.0051	0.965	-0.129	-0.0346	-0.0246	inactive
19	STK3	0.552	1	-0.0542	0.155	-0.0181	inactive
20	ALPK3	0.552	1	0.135	0	0.0579	inactive
21	MAST4	0.552	1	-0.0906	0	-0.0581	inactive
22	WNK4	0.552	1	-0.0517	0.107	0.0909	inactive
23	CILK1	-0.95	0.907	0.0795	-0.00321	0.0978	inactive
24	FER	-0.443	0.938	-0.119	-0.024	-0.13	inactive
25	DYRK1A	0.552	1	0.0314	0.0237	0.0108	inactive
26	ITK	-0.282	0.948	-0.0816	-0.00444	-0.0849	inactive
27	STK25	0.552	1	0.171	0.0397	0.0642	inactive
28	CDC7	0.552	1	0.0353	0.158	0.115	inactive
29	STK31	0.552	1	0.00763	0.0543	0.037	inactive

As entered above.
Under “robust z-score, knock-down alone”, APC is entered as 0.552
For “synergy score with BYL719”, STK10 reads 0.00309
For “viability, knock-down alone (fraction of control)”, TSSK1B is entered as 0.971
ERBB2, robust z-score, knock-down alone: -0.118
Under “viability, knock-down alone (fraction of control)”, TRIB3 shows 0.884
For “outcome”, TLK2 has inactive

Next reagents follow:
no.	target gene	robust z-score, knock-down alone	viability, knock-down alone (fraction of control)	synergy score with BYL719	synergy score with cetuximab	synergy score with trametinib	outcome
30	RPS6KA2	0.552	1	0.205	0.272	0.238	inactive
31	PAK3	0.552	1	-0.12	0	-0.202	inactive
32	HCK	0.552	1	-0.0603	0	0.0467	inactive
33	CLK4	0.552	1	-0.00914	0	0.106	inactive
34	CDC42BPG	0.552	1	-0.143	0	-0.0768	inactive
35	TRIB1	-0.732	0.92	-0.104	-0.0797	0.108	inactive
36	MAP2K5	0.552	1	-0.114	0	-0.0381	inactive
37	CSNK1A1	0.552	1	-0.0447	0	0.0155	inactive
38	CNOT1	-1.66	0.862	-0.0735	0.113	0.135	inactive
39	CDKN2C	0.111	0.973	0.0154	-0.0274	0.115	inactive
40	KCNH8	0.0587	0.969	0.0339	-0.0307	0.198	inactive
41	GRK6	0.552	1	0.0372	0.0669	0.0127	inactive
42	PRKAR2A	0.0243	0.967	-0.017	-0.0328	0.0134	inactive
43	DCLK3	0.552	1	-0.00179	0	-0.1	inactive
44	PHKA1	0.552	1	-0.00153	0.0794	-0.0415	inactive
45	ITPKA	0.552	1	0.0391	0	0.0858	inactive
46	MYLK3	0.552	1	-0.0921	0	0.0403	inactive
47	BMP2K	-0.0816	0.961	-0.115	0.0677	0.0779	inactive
48	BUB1B	-2.45	0.814	-0.0608	-0.0131	-0.00905	inactive
49	CAMKV	0.552	1	0.0671	0.124	0.107	inactive
50	FXR1	0.552	1	0.0713	0	-0.0102	inactive
